# Results published in PubChem BioAssay AID2417 (National Center for Advancing Translational Sciences (NCATS), 2010).
# Screen size: about 140,000 compounds; about 4,300 (3.1%) were called active. The inconclusive results got no clear call from the source; some entries with a clear call stand among them for comparison.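 How the source made its calls: active means readout at or below -70, meaning at least 70% loss of cells showing the perinucleolar compartment, a nuclear body marking cancer cells; inconclusive means readout between -30 and a set limit; inactive means the rest.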
# Assay: High Content Assay for Compounds that inhibit the Assembly of the Perinucleolar Compartment;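 further: plate controls were DMSO wells for no effect and camptothecin positive control wells for full effect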
# Conditions: PC3M PTB-GFP, PNC prevalence imaging, 16 h; at 10 µM; active compounds read low
# Method in brief: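 Compounds are pinned in duplicate onto adhered PC3M cells stably expressing GFP-tagged PTB and incubated 16 h at 37 C. Cells are then fixed, nuclei stained with Hoechst, and PNC-positive cells counted.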
row,SMILES,"activity change (PNC), negative = inhibition"
1,COc1ccc(/C=C/C(=O)NCCOc2ccccc2OC)cc1,inconclusive: -55%
2,CC(=O)c1c(N2CCOCC2)nc(=S)n(Cc2ccccc2)c1C,inconclusive: -38.8%
3,CC(C)CNC(=O)CSc1nc(-c2cccs2)cc(C(F)(F)F)n1,inconclusive: -67%
4,CCCn1c(SCC(=O)NC23CC4CC(CC(C4)C2)C3)n[nH]c1=O,inconclusive: -65.5%
5,CC(=O)Nc1ccc(NC(=S)NC(=O)c2oc3ccccc3c2C)cc1,inconclusive: -65.9%
6,CCOC(=O)n1ccc(C(=O)Nc2ccccc2F)n1,inconclusive: -46.1%
7,COC(=O)c1cc(NC(=S)NCc2ccc(Cl)cc2)cc(C(=O)OC)c1,inconclusive: -37.5%
8,CC1CCN(c2[nH]c(=S)c(C#N)c3c2CCCC3)CC1,inconclusive: -36.9%
9,O=S(=O)(NCc1ccc(Cl)cc1)c1ccc(Cl)nc1,inconclusive: -40.5%
10,Cc1ccc(C(=O)O/N=C/c2ccc3c(c2)OCO3)cc1,inconclusive: -63.4%
11,COCCn1nnnc1CN1CCC(C)CC1,active: -100%
12,NS(=O)(=O)c1ccc(NS(=O)(=O)/C=C/c2ccccc2)cc1,inactive: -5.65%
13,CCn1cc(CN(C)C(=O)/C=C/c2ccc([N+](=O)[O-])cc2)c(C)n1,inconclusive: -42.8%
14,O=C(C[n+]1ccsc1)c1ccccc1,inconclusive: -37%
15,O=C(NNS(=O)(=O)c1cccc(Cl)c1Cl)c1cccc(S(=O)(=O)N2CCOCC2)c1,inconclusive: -33.8%
16,CCCCC1(CC(=O)OC)C(=O)N(c2ccccc2)N(c2ccccc2)C1=O,inconclusive: -56.6%
17,CC(C)=CC(=O)Nc1nnc(C)s1,active: -108%
18,CC(=O)N1CCc2ccc(S(=O)(=O)N3CC(C)OC(C)C3)cc21 (stereo unspecified),inactive: 7.47%
19,CN(C)c1ccc(C(=S)NCc2ccco2)cc1,inactive: -17.1%
20,O=C(NCCO)c1cccc(S(=O)(=O)N2CCCCC2)c1,inconclusive: -36.9%
21,O=C(Nc1ncn[nH]1)c1c(Cl)ccc(Cl)c1Cl,inconclusive: -44%
22,CC1(C)CC(=O)C(Sc2ccccc2C(=O)O)=C(O)C1,inconclusive: -56.5%
23,COC(=O)c1sccc1NC(=S)N1CCN(c2ccccc2F)CC1,inconclusive: -64.7%
24,CCCC(C)NC(=O)c1ccc(F)cc1 (stereo unspecified),active: -82.2%

# For reference, part of the list above:
row,SMILES,"activity change (PNC), negative = inhibition"
1,COc1ccc(/C=C/C(=O)NCCOc2ccccc2OC)cc1,inconclusive: -55%
2,CC(=O)c1c(N2CCOCC2)nc(=S)n(Cc2ccccc2)c1C,inconclusive: -38.8%

# Continuation.

row,SMILES,"activity change (PNC), negative = inhibition"
1,C=CCn1c(=O)[nH]c2cc(C(=O)N3CCN(c4cccc(Cl)c4)CC3)ccc2c1=O,inconclusive: -35.8%
2,O=C(Nc1nnc(SCc2cccc3ccccc23)s1)C1COc2ccccc2O1 (stereo unspecified),inactive: 15.8%
3,O=C(CSc1cc(Cl)ccc1Cl)NCC1CCCO1 (stereo unspecified),inactive: 10.5%
4,COC(=O)CSc1nc2ccc(NC(=O)CSc3nnnn3Cc3ccccc3)cc2s1,inconclusive: -36.4%
5,COc1ccc(-c2csc(N(CCCN3CCOCC3)C(=O)c3ccco3)n2)cc1,inconclusive: -37.8%
6,Cc1ccccc1N(CC(=O)N/N=C/c1cc(Br)c(C)o1)S(C)(=O)=O,inactive: -24.7%
7,Cc1cccc(CCNC(=O)C2CCC(=O)N2Cc2ccc(F)cc2)c1 (stereo unspecified),inconclusive: -36.1%
8,Cc1cc(C)n2c(SCC(=O)Nc3c(C)n(C)n(-c4ccccc4)c3=O)nnc2n1,inconclusive: -55.2%
9,O=C1C2ON(c3ccccc3)C(c3ccncc3)C2C(=O)N1c1ccc(Br)cc1 (stereo unspecified),inactive: 14.3%
10,Cc1ccc(CNC(=O)c2ccc(NC(=O)CCS(=O)(=O)c3cccs3)cc2)cc1,inconclusive: -77.2%
11,CCS(=O)(=O)CCSc1nc2c(cc1C#N)CCCC2,inconclusive: -65.8%
12,O=C(COC(=O)c1ccccc1NC(=O)c1ccco1)NCCC1=CCCCC1,inconclusive: -52.8%
13,Cc1cccc(C)c1-n1c(C)cc(/C=N/NC(N)=S)c1C,inactive: 20.8%
14,CCOC(=O)c1c(C)c(C(=O)N2CCc3ccccc3C2)c(C)n1CC,inactive: 20.6%
15,Cc1cc(Cl)ccc1OCCCC(=O)N1CCCc2ccccc21,active: -93.7%
16,Cc1oc(-c2ccccc2)nc1CSc1nc2c(c(=O)[nH]1)CCC2,inconclusive: -42.2%
17,CC1=C(C)/C(=N\OS(=O)(=O)c2ccccc2)C=CC1=O,inactive: -19.3%
18,Cn1c(=O)cc(OCCCC(=O)Nc2ccccn2)c2ccccc21,inactive: 27.7%
19,COc1cc(NC(=S)NC(=O)c2c(OC)cccc2OC)ccc1NC(=O)c1cccs1,inactive: -27.4%
20,Cc1ccc(S(=O)(=O)N(C)c2c(C)ccc(S(=O)(=O)N3CCN(C=O)CC3)c2C)cc1,inconclusive: -30.9%
21,O=C(COC(=O)C1CC(=O)N(c2ccccc2)C1)c1ccccc1 (stereo unspecified),inconclusive: -38.6%
22,CSc1sc(C)cc1/C=N/O,inactive: 39.1%
23,CCOC(=O)Cc1csc(NC(=S)NC(=O)c2ccccc2)n1,inactive: 16.7%
24,CCCn1c(N)c(Br)c(=O)[nH]c1=O,inconclusive: -65%

row,SMILES,"activity change (PNC), negative = inhibition"
1,Cc1cc(-c2ccco2)n(CC(=O)O)n1,inconclusive: -38.2%
2,CCc1ccc(C(=O)CC2(O)C(=O)N(CN3CCOCC3)c3ccccc32)cc1 (stereo unspecified),inactive: 16.4%
3,CCSc1nnc(NC(=O)c2nc(-c3ccccc3)n(-c3ccccc3)n2)s1,inactive: -2.83%
4,COc1ccc(NC(=O)CCC(=O)c2ccc(-c3ccccc3)cc2)cc1,inconclusive: -31.3%
5,Cc1cccc(N2C(S)=C(C#N)C(=O)NC23CCCCC3)c1,inactive: 3.39%
6,COc1ccc(C)cc1NC(=O)CN1CCN(CC(=O)Nc2ccccc2F)CC1,inconclusive: -35.5%
7,COCCn1c(-c2ccccc2)nc(=S)c2c1CC(C)(C)OC2,inconclusive: -54.3%
8,CN(Cc1ccccc1)C(=O)NC1CCCCC1,inconclusive: -30.2%
9,COc1cccc(-n2nnnc2SCC(=O)NC2CCCC2)c1,inactive: 1.18%
10,Cc1ccc(NCC(=O)NNC2=NCCC2)c(C)c1,inactive: 30.8%
11,CCOc1ccc(S(=O)(=O)Nc2cccc(N(C)S(C)(=O)=O)c2)cc1,inconclusive: -41.4%
12,CC1CC(=O)Nc2ccc([N+](=O)[O-])cc2N1C (stereo unspecified),inactive: -13%
13,COCCN(Cc1cc2cccc(C)c2[nH]c1=O)C(=O)c1ccccc1,inconclusive: -36%
14,CN1C(=O)N(c2ccccc2)C(Nc2nncs2)C1(C)C (stereo unspecified),inconclusive: -62.9%
15,CCC(=O)Nc1sc2c(c1C(N)=O)CCC2,active: -100%
16,CCOC(=O)c1sc(NC(=O)CSc2nc3ccccc3o2)c(C(=O)OCC)c1C,inconclusive: -42.9%
17,O=C(Nc1cccc2c1C(=O)NC2=O)c1ccc(S(=O)(=O)N2CCCC2)cc1,active: -111%
18,CCSc1nnc(NC(=O)C(C)(C(F)(F)F)C(F)(F)F)s1,inactive: 17.2%
19,CCc1c(O)nc2sc3ccccc3n2c1=O,inconclusive: -44.8%
20,COc1ccccc1C1C=C(c2ccc(C)cc2)Nc2nnnn21 (stereo unspecified),inactive: -7.75%
21,COc1ccc(-n2c(C)c([N+](=O)[O-])c3ccc(O)c(CN(C)C)c32)cc1,inconclusive: -30.5%
22,COc1ccc(S(=O)(=O)NC(C)C)cc1C(=O)NC1CCCCC1,inconclusive: -53.4%
23,Cc1noc(C)c1C(=O)NCCc1ccccc1,inconclusive: -48.8%
24,CCOC(=O)c1cc(-c2ccccc2)sc1N,inactive: 55.2%

row,SMILES,"activity change (PNC), negative = inhibition"
1,COc1ccc(-c2cnc(SCC(=O)Nc3ccc4c(c3)OCO4)n2Cc2ccco2)cc1,inconclusive: -39.7%
2,Cc1cc(C)c(NS(=O)(=O)c2ccc(NC(=O)c3cccs3)cc2)c(C)c1,inactive: 24.9%
3,Cc1ccc(NC(=O)CSc2nnc(-c3ccccc3C)o2)cc1C,inconclusive: -48.3%
4,CCOC(=O)c1c(C)oc2cc(Br)c(O)c(Br)c12,inconclusive: -61%
5,CC[C@H](CO)NCCN[C@H](CC)CO,active: -115%
6,COc1ccc(Nc2nc(N3CCCCC3)nc3ccccc23)c(OC)c1,inconclusive: -63.8%
7,CCOC(=O)c1sc(-c2ccc(OC)cc2)cc1NC(C)=O,inactive: 54.8%
8,Cc1cc(C)n2nc[n+](C)c2n1,inconclusive: -50.1%
9,O=C(NCC1CCC(C(=O)O)CC1)c1cccnc1 (stereo unspecified),inconclusive: -66.2%
10,CNCc1ccccc1Sc1cccc(O)c1,inconclusive: -67.5%
11,CCOC(=O)C1CSC(CC(=O)Nc2ccc(OCC)cc2)C(=O)N1 (stereo unspecified),inconclusive: -48.9%
12,CCCCCCNCc1ccc(Br)cc1,inconclusive: -58.3%
13,Cn1cc[nH]c1=S,inactive: 15.6%
14,CCCCNC(=O)c1sc2nc(C)cc(COC)c2c1-n1cccc1,inactive: -22.3%
15,COc1ccc(-c2cc(-c3nnc(COC(=O)CC4CCCC4)o3)c3ccccc3n2)cc1OC,inconclusive: -51%
16,O=C(O)C1CCCCC1C(=O)Nc1ccc(Cl)cc1Cl (stereo unspecified),inactive: -22.5%
17,CC12CCC(c3n[nH]c(=S)nc31)C2(C)C (stereo unspecified),active: -113%
18,CCc1sc(C(=O)Nc2cc(Cl)ccc2N2CCCCC2)cc1C,inactive: 65%
19,C=CCNC(=O)C12CC3(C)CC(C)(CC(C)(C3)C1)C2,inconclusive: -36.5%
20,CCOc1ccc(NS(=O)(=O)c2ccc(NC(=O)[C@@H]3CCCC[C@@H]3C(=O)O)cc2)cc1,inconclusive: -40.2%
21,COc1cccc(NC(=O)COC(=O)c2ccc(F)cc2F)c1,inconclusive: -31.7%
22,C=C(C)C(=O)OC1(C(F)(F)F)Oc2cc(C)ccc2NC1=O (stereo unspecified),inactive: -10%
23,Cc1sc(NC(=O)c2ccccc2F)c(CN2CCCCC2)c1C,inconclusive: -53.4%
24,Cc1ccc(N)cc1-n1c(C)ccc1C,inconclusive: -55.5%

# Copied from the list.
# For activity change (PNC), negative = inhibition, `NS(=O)(=O)c1ccc(NS(=O)(=O)/C=C/c2ccccc2)cc1` has the entry inactive: -5.65%
# For activity change (PNC), negative = inhibition, `Cc1cccc(C)c1-n1c(C)cc(/C=N/NC(N)=S)c1C` has the entry inactive: 20.8%
# For activity change (PNC), negative = inhibition, `Cc1cccc(N2C(S)=C(C#N)C(=O)NC23CCCCC3)c1` has the entry inactive: 3.39%
# For activity change (PNC), negative = inhibition, `CC(C)CNC(=O)CSc1nc(-c2cccs2)cc(C(F)(F)F)n1` has the entry inconclusive: -67%
